# No constants are given. Whether binding was seen depends on the method and setting. In cells and extracts the contact can be indirect. These calls come from enrichment with a bait or labelling near it, and not all partners need be listed. For some of these results: Where a sequence is shown, tags or fusion partners need not be part of it.
# T1: AtELF3-HFC (Arabidopsis EARLY FLOWERING 3 with C-terminal His6-3xFlag tag) (Arabidopsis thaliana) (UniProt O82804)
# T1 sequence: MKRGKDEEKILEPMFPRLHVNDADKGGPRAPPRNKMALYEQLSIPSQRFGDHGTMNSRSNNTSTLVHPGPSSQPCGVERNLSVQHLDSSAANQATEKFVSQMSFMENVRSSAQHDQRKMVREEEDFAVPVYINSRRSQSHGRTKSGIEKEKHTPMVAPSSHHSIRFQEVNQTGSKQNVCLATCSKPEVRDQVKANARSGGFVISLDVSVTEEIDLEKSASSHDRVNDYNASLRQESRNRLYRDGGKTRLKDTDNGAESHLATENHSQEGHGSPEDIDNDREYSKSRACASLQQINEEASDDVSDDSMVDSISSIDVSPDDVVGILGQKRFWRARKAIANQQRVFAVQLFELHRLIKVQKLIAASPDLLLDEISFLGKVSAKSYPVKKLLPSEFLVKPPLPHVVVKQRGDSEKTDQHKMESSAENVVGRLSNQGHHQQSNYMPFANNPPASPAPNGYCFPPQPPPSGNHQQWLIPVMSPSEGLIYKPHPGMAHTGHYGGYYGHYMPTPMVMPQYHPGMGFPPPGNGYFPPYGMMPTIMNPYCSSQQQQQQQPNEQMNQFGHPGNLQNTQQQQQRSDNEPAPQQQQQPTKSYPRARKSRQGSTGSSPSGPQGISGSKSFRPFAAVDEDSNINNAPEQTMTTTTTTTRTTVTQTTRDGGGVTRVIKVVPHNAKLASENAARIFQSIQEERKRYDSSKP
# T2: AtELF3-HFC (Arabidopsis EARLY FLOWERING 3 with C-terminal His6-3xFlag tag) (Arabidopsis thaliana), O82804
# T2 chain: T1 sequence
# B1: phyA (protein, UniProt P14712 1-1122)
# chain: MSGSRPTQSSEGSRRSRHSARIIAQTTVDAKLHADFEESGSSFDYSTSVRVTGPVVENQPPRSDKVTTTYLHHIQKGKLIQPFGCLLALDEKTFKVIAYSENASELLTMASHAVPSVGEHPVLGIGTDIRSLFTAPSASALQKALGFGDVSLLNPILVHCRTSAKPFYAIIHRVTGSIIIDFEPVKPYEVPMTAAGALQSYKLAAKAITRLQSLPSGSMERLCDTMVQEVFELTGYDRVMAYKFHEDDHGEVVSEVTKPGLEPYLGLHYPATDIPQAARFLFMKNKVRMIVDCNAKHARVLQDEKLSFDLTLCGSTLRAPHSCHLQYMANMDSIASLVMAVVVNEEDGEGDAPDATTQPQKRKRLWGLVVCHNTTPRFVPFPLRYACEFLAQVFAIHVNKEVELDNQMVEKNILRTQTLLCDMLMRDAPLGIVSQSPNIMDLVKCDGAALLYKDKIWKLGTTPSEFHLQEIASWLCEYHMDSTGLSTDSLHDAGFPRALSLGDSVCGMAAVRISSKDMIFWFRSHTAGEVRWGGAKHDPDDRDDARRMHPRSSFKAFLEVVKTRSLPWKDYEMDAIHSLQLILRNAFKDSETTDVNTKVIYSKLNDLKIDGIQELEAVTSEMVRLIETATVPILAVDSDGLVNGWNTKIAELTGLSVDEAIGKHFLTLVEDSSVEIVKRMLENALEGTEEQNVQFEIKTHLSRADAGPISLVVNACASRDLHENVVGVCFVAHDLTGQKTVMDKFTRIEGDYKAIIQNPNPLIPPIFGTDEFGWCTEWNPAMSKLTGLKREEVIDKMLLGEVFGTQKSCCRLKNQEAFVNLGIVLNNAVTSQDPEKVSFAFFTRGGKYVECLLCVSKKLDREGVVTGVFCFLQLASHELQQALHVQRLAERTAVKRLKALAYIKRQIRNPLSGIMFTRKMIEGTELGPEQRRILQTSALCQKQLSKILDDSDLESIIEGCLDLEMKEFTLNEVLTASTSQVMMKSNGKSVRITNETGEEVMSDTLYGDSIRLQQVLADFMLMAVNFTPSGGQLTVSASLRKDQLGRSVHLANLEIRLTHTGAGIPEFLLNQMFGTEEDVSEEGLSLMVSRKLVKLMNGDVQYLRQAGKSSFIITAELAAANK
# B2: phyD (protein, UniProt P42497 1-1164)
# chain: MVSGGGSKTSGGEAASSGHRRSRHTSAAEQAQSSANKALRSQNQQPQNHGGGTESTNKAIQQYTVDARLHAVFEQSGESGKSFDYSQSLKTAPYDSSVPEQQITAYLSRIQRGGYTQPFGCLIAVEESTFTIIGYSENAREMLGLMSQSVPSIEDKSEVLTIGTDLRSLFKSSSYLLLERAFVAREITLLNPIWIHSNNTGKPFYAILHRVDVGILIDLEPARTEDPALSIAGAVQSQKLAVRAISHLQSLPSGDIKLLCDTVVESVRDLTGYDRVMVYKFHEDEHGEVVAESKRNDLEPYIGLHYPATDIPQASRFLFKQNRVRMIVDCYASPVRVVQDDRLTQFICLVGSTLRAPHGCHAQYMTNMGSIASLAMAVIINGNEEDGNGVNTGGRNSMRLWGLVVCHHTSARCIPFPLRYACEFLMQAFGLQLNMELQLALQVSEKRVLRMQTLLCDMLLRDSPAGIVTQRPSIMDLVKCNGAAFLYQGKYYPLGVTPTDSQINDIVEWLVANHSDSTGLSTDSLGDAGYPRAAALGDAVCGMAVACITKRDFLFWFRSHTEKEIKWGGAKHHPEDKDDGQRMNPRSSFQTFLEVVKSRCQPWETAEMDAIHSLQLILRDSFKESEAMDSKAAAAGAVQPHGDDMVQQGMQEIGAVAREMVRLIETATVPIFAVDIDGCINGWNAKIAELTGLSVEDAMGKSLVRELIYKEYKETVDRLLSCALKGDEGKNVEVKLKTFGSELQGKAMFVVVNACSSKDYLNNIVGVCFVGQDVTGHKIVMDKFINIQGDYKAIIHSPNPLIPPIFAADENTCCLEWNTAMEKLTGWPRSEVIGKLLVREVFGSYCRLKGPDALTKFMIVLHNAIGGQDTDKFPFPFFDRKGEFIQALLTLNKRVSIDGKIIGAFCFLQIPSPELQQALEVQRRQESEYFSRRKELAYIFQVIKNPLSGLRFTNSLLEDMDLNEDQKQLLETSVSCEKQISKIVGDMDVKSIDDGSFLLERTEFFIGNVTNAVVSQVMLVVRERNLQLIRNIPTEVKSMAVYGDQIRLQQVLAEFLLSIVRYAPMEGSVELHLCPTLNQMADGFSAVRLEFRMACAGEGVPPEKVQDMFHSSRWTSPEGLGLSVCRKILKLMNGGVQYIREFERSYFLIVIELPVPLMMMMPSS
# B3: LUX ARRHYTHMO, endogenous (protein, UniProt Q9SNB4 1-323)
# chain: MGEEVQMSDYDVSGDGDRVSEWEMGLPSDEDLASLSYSLIPPNLAMAFSITPERSRTIQDVNRASETTLSSLRGGSSGPNTSSSNNNVEEEDRVGSSSPGSDSKKQKTSNGDGDDGGGVDPDSAMAAEEGDSGTEDLSGKTLKRPRLVWTPQLHKRFVDVVAHLGIKNAVPKTIMQLMNVEGLTRENVASHLQKYRLYLKRMQGLTNEGPSASDKLFSSTPVPPQSFQDIGGGGGSSGNVGVPIPGAYGTQQMMQMPVYAHHMGMQGYHHQNHNHDPYHQNHRHHHGAGGNGAFESNPYMMQQNKFGSMASYPSVGGGSANEN
# B4: ELF4-L2 (protein, UniProt Q94BS8 1-119)
# chain: MESRMEGDVYSGFGERYQMDGKLLQNFQKSFVQVQDILDQNRLLINEINQNHESKQADHLGRNVGLIRELNNNIRTVASLYGDLSHSFARSVDASSEGESTGTLKSDGKANNQKRFRSG
# B5: SPA1, Q9SYX2 1-1029 (protein)
# chain: MPVMERVAEETVATNNIQLKARVDDVPCNKLDARHNDMVIQSETANSDCPGSSAHRNVDLTKPPPPEEAAGAKLSVEELTLGNYRIVQGSNNTNVDSPRAGKFEHLYRLARGSAFRAGDGDLDSQPRDMDQMLSRIRQQLAGAPSERQNLKPFMSRRSDQNLEAFSERLRAAGENSIMNAPALISEGVQMKTPVSSSNFSQLLLKRAMKGKGVVGKNQETPPEFVSDQDLGSKEKKLDISKSPTPHDVLPLKSSPKGNGMVSHGDGNHSKSSIGISLREFLRSSYAKREKRHGLCLFRQLVELVDSAHSKRLFLLDLRPSLFTLVPSKKLRYIGNFGKNDLESDVDEDLNRRRPVVEESSSGGRDSKKRKMDLHLNSPGNQLQATSTGRPFKRKSPVIDLNMVDARNPDSCELQQQDYIKNLSVSSVSRKQSMSTWLEEQWYTCPEEINGEDIGEKSNIYALGVLLFELLCHCESGEMHAAMMADLRHRILPPTFLSKYPKEAGFCLWLLHPEPSSRPSARDILKSELICEDDSVKSTAAAEEISELLLHFLSSLEVQKKKKASKLLQDIQTLEDDIKEAERRYSSNVSLVRSHGAIEKRVQSSPLDEHCTTSSALFVPTANTDRLMSNIRQLEDAYFFMRSQINLSSSAATARSDKTLKDRDRCSENQNENQDMSTKGKSSDQLEVFFEGLCKFARYSKFETCGTIRSGDLLNSASVVCSLSFDPDEEHIAAAGISKKIKIFDFNAFMNESVGVHYPLVEMVNKSKLSCVCWNSYIKNYLASTDYDGVVQIWDAGTGQGFSQYTEHQKRAWSVDFSPSDPTKFVSGSDDCSVKLWSINEKRSLGTIWSPANVCCVQFSSYSNHLLAFGSADYKVYCYDLRYVKTPWCTLAGHEKAVSYVKFMDSETIVSASTDNSLKLWNLNKTNSSGLSPGACSLTYKGHTNQKNFVGLSVLDGYIACGSETNEVYSYYKSLPMPMTSYKFGSVDPISGNEYFDDNGQFVSSVCWRKKSNMLVAANSTGNMKLLKLV
# Target: BdELF3-HFC (Brachypodium distachyon ELF3 with C-terminal His6-3xFlag tag) (Brachypodium distachyon)
# Experiment: affinity purification with mass spectrometry; tandem affinity purification by the FLAG and His epitopes of ELF3-HFC from extracts of 10-day-old transgenic Arabidopsis seedlings (elf3-2 background), 12L:12D, harvested at ZT12; two replicates for each line
# Conditions: not given
row,binding,Binder
1,binds,B1
2,binds,B2
3,binds,B3
4,binds,B4

# Target: T1, AtELF3-HFC (Arabidopsis EARLY FLOWERING 3 with C-terminal His6-3xFlag tag) (Arabidopsis thaliana)
# Experiment: as above
# Conditions: not given
row,binding,Binder
1,binds,B1
2,binds,B2
3,binds,B3
4,binds,B4

# Target: SvELF3-HFC (Setaria viridis ELF3a with C-terminal His6-3xFlag tag) (Setaria viridis)
# Experiment: as above
# Conditions: not given
row,binding,Binder
1,binds,B1
2,binds,B2
3,binds,B3
4,binds,B4

# Target: T2, AtELF3-HFC (Arabidopsis EARLY FLOWERING …)
# Experiment: as above
# Conditions: remark: other sources report otherwise
row,binding,Binder
1,binds,B5

# Source: paper PMC6508535
